Laboratory results published in patent US9593127B2, “Heterocyclylalkyne derivatives and their use as modulators of mGluR5 receptors” (RECORDATI IRELAND LTD., priority 2014, dated 2017).
At least one compound was matched to its structure with a doubt left.

Chains of the proteins cited; added tags and fusions are not shown. Residues count along the entry.
UniProt P41594, 21-1212: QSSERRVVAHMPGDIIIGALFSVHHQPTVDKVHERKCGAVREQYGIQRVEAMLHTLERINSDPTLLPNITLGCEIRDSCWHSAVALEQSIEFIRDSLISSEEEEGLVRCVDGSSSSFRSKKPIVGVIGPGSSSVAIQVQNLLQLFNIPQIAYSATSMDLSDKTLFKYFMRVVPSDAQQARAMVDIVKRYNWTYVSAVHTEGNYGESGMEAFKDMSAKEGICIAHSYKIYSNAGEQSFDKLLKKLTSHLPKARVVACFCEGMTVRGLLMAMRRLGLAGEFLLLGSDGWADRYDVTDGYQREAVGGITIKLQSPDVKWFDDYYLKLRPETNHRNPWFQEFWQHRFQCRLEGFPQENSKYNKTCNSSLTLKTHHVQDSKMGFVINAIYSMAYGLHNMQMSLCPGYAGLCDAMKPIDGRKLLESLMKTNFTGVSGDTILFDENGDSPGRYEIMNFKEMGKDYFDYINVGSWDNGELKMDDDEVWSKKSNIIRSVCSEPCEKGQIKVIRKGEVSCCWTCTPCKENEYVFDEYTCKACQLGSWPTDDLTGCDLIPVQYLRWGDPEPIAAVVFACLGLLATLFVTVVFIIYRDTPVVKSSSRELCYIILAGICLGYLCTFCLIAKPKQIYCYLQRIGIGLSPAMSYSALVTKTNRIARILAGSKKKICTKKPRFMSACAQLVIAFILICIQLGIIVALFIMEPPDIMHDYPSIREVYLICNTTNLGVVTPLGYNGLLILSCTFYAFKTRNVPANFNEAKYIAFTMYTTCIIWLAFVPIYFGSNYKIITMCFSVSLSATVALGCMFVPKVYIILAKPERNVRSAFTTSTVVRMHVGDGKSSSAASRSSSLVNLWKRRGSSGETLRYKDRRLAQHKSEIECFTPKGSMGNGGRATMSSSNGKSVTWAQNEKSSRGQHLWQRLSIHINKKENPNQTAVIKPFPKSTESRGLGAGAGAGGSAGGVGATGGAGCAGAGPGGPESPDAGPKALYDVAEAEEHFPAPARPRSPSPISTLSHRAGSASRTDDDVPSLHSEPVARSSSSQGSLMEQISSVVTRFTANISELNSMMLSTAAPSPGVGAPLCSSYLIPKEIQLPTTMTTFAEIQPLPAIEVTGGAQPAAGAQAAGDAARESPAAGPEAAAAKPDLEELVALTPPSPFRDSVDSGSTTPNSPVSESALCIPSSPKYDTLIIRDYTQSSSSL

Molecular target: human mGlu5 receptor (CHO T-REx h-mGluR5 cells) (Homo sapiens (Human), UniProt P41594)
Experiment: Calcium fluorescence measurement, potentiation of mGlu5 activation at EC20 of glutamate
Format: cell-based
Conditions: agonist glutamate
Description: Cell lines stably transfected were generated using inducible expression vectors encoding human mGlu5 receptor using the Tetracycline-Regulated Expression system (T-REx™ system, Invitrogen, Life Technologies). Human mGluR5 open reading frame (ORF), comprehensive of the stop codon, were cloned into the pcDNA4/TO/myc-His™ A vector, carrying the TetO2 sequences. The insertion site was HindIII-PstI for mGluR5 receptors. The obtained constructs were then transfected into the T-REx CHO™ cell line using the FuGENE protocol (Roche); the CHO T-REx™ cell line stably expresses the Tet repressor (from the pcDNA6/TR plasmid) under the selection of blasticidin, 10 μg/ml. Stable clones were obtained selecting with zeocine 1 mg/ml and maintaining in ULTRA CHO medium (LONZA) supplemented with dialyzed FBS, zeocin, blasticidine, at 37° C., in an atmosphere of 5% CO2. The expression of h-mGluR5 receptors was de-repressed with 1 μg/ml tetracycline for 18 h before binding experimentation, while the expression of h-mGluR5 receptors was de-repressed respectively with 3 ng/ml and 10 ng/ml tetracycline for 18 h before calcium fluorescence experimentation.
Cells were seeded into black-walled, clear-bottom, 96-well plates at a density of 80000 cell/well, in RPMI (without Phenol Red, without L-glutamine; Gibco LifeTechnologies, CA) supplemented with 10% dialyzed FBS. Following 18-h incubation with tetracycline, the cells were loaded with […] Ca^2+—sensitive fluorescent dye Fluo-4/AM (Molecular Probes) in Hanks' balanced saline solution (HBSS, Gibco LifeTechnologies, CA) with 20 mM Hepes (Sigma) and 2.5 mM probenecid (Sigma), for 1 h at 37° C. The cells were washed three times with HBSS to remove extracellular dye. Fluorescence signals were measured by using the fluorescence microplate reader Flexstation III (Molecular Devices) at sampling intervals of 1.5 s for 60 s.
The antagonist potency was determined using the EC80 of the quisqualate used as agonist and the potentiation of mGlu5 activation was determined using the EC20 of the agonist (quisqualate or glutamate). The compounds were applied 10 minutes before the application of the agonist. For binding and calcium assay studies, the compounds were dissolved in DMSO or demineralized water according to their solubility. All the reported doses were those of the corresponding salts or bases.

Row | SMILES | Fold Increase 1 microM Glutam. | Fold Increase Glutam.
1 | O=C(OC1CCCC1)N1CCC2C(C#Cc3cccc(Cl)c3)=NOC21 (stereo not shown) [Example 23, cyclopentyl-3-(3-chlorophenylethynyl)-3a,4,5,6a-tetrahydropyrrolo[3,2-d]isoxazole-6-carboxylate] | 4.73 fold | 2.49 fold
2 | CC(C)CCOC(=O)N1CCC2C(C#Cc3cccc(Cl)c3)=NOC21 (stereo not shown) [Example 34, 3-methylbutyl-3-(3-chlorophenylethynyl)-3a,4,5,6a-tetrahydropyrrolo[3,2-d]isoxazole-6-carboxylate] | 5.6 fold | 3.31 fold
